# According to patent US20120322699A1, “Method of Preventing Scale Formation During Enhanced Oil Recovery” (Chevron U.S.A. Inc., priority 2011, published 2012):
# For at least one compound, name, drawing or mass did not settle the structure.
# Experiment: Initial screening of complexing agents and scale inhibitors with synthetic brine
# Type: physicochemical
# Details: complexing agents; synthetic brine 1,000 ppm Ca2+/Mg2+, 450 ppm HCO3-
compound,measurement,value
O=P(O)(O)OP(=O)(O)OP(=O)(O)O [Sodium tripolyphosphate],Result,−
